# Assay results

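Genome-wide siRNA knockdown in TC32 Ewing sarcoma cells, comparing luciferase light from an NR0B1-promoter reporter with a CMV-promoter reporter 48 hours after transfection.
Each siRNA was applied at 20 nM.
A z-score of the log NR0B1-over-CMV signal, less the median of siRNAs with the same seed; more negative means a stronger specific loss of the NR0B1 reporter.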

The strongest results of the screen are mostly left out here.
Sequences are the guide (antisense) strand, without overhang.

- AGCGUAAUAAUUGAUAUCC against LIFR | seed-corrected z-score 1.174
- UUCAUAUUGAUAUAUACGG against ANKRD30A | seed-corrected z-score 0.6758
- AACAGAUCAAUCUCACUCC against ANXA5 | seed-corrected z-score 2.197
- UUCGUUCCCAUAGCACUGG against GRAMD1B | seed-corrected z-score -0.9761
- GAGCAGGAAACUGUUGGUC against OVOS | seed-corrected z-score 0.4163
- AUAGGGAAAGGAGUGGUGG against SCD | seed-corrected z-score 0.4236
- UGAGUAAAACCCUUUCUUG against SLA | seed-corrected z-score -1.036
- ACUGUUAUUUAUCCGAUCC against HEY2 | seed-corrected z-score -0.3098
- UGCUCUUCCACUAAGAUGG against LOC730179 | seed-corrected z-score 0.1915
- AUCCGUAUGUGAGACAUUC against F13B | seed-corrected z-score 1.152
- UAAAAUCUCAGGUUGCAUG against IFNL2 | seed-corrected z-score 0.703
- AUCAGUGUUAUCAACCUGG against LAP3 | seed-corrected z-score 0.491
- UUCAUUAGAAUAAUACCGG against TMTC2 | seed-corrected z-score 0.402
- AUCGGCAGUAGUUAUCUCG against PCOLCE2 | seed-corrected z-score -0.709
- UGCUGAACCGACUUGAGUC against SLC35E4 | seed-corrected z-score -0.3421
- UCACAAACCCAUGAGGAUC against HLA-DOA | seed-corrected z-score 0.0142
- UUCUCUUCCAGUAAUUUUC against KCNJ3 | seed-corrected z-score 0.1843
- UAAGCGGUAGCAUUAGCCG against HIST1H4E | seed-corrected z-score 0.6284
- UAUAGGAUUAGGAGACGAC against RB1CC1 | seed-corrected z-score -0.1292
- AUAGUCAUUAUAGAGCUCC against URB2 | seed-corrected z-score 1.14
- UUCCACAGCAGUGAAGUGG against LACTBL1 | seed-corrected z-score 0.04292
- UCUGCGAAGGUGAUGAGGC against ZNF576 | seed-corrected z-score 0.131
- UAGGCUUAAGGUACCAUAC against FAM47DP | seed-corrected z-score 0.3629
- UCUCUUAUCACCAGGAUCC against QRICH1 | seed-corrected z-score -0.4249
- UUUGAUCAGAAGACGAUCG against DPYSL2 | seed-corrected z-score -0.242
- AAAGUACCUCCAGAACUGC against SLC25A6 | seed-corrected z-score 0.6556
- UUCUAGUCCAUGCAUCACC against SLC36A2 | seed-corrected z-score -1.124
- UACUUGCUCAAUUCGAACC against COG6 | seed-corrected z-score -0.7931
- UGGUUUAUCAGCUUCACCA against IGFL1 | seed-corrected z-score -0.6306
- AAAGAAAGACCGAAUGUCC against SEC14L5 | seed-corrected z-score 1.066
- UUGCUGUAAUCCAUCAUAC against TEX9 | seed-corrected z-score 0.3666
- UGAAGUAAGAGAGGUGAUC against NEDD4 | seed-corrected z-score 0.6918
- UAUGUGCUCGACCUGCUUC against PRKACG | seed-corrected z-score 0.4639
- UUUGUCUCACGGGUCAGGC against THY1 | seed-corrected z-score -0.3487
- AAAGGUUUGUUUCUGUCUC against FKBP1B | seed-corrected z-score -0.6546
- ACCUUUUUGACCGUCUUGC against HTR1A | seed-corrected z-score -0.7669
- ACCAAUGACACCGUCAUCC against CLCN4 | seed-corrected z-score -0.4269
- UUCUAGACUGACAAAAUCC against OSR2 | seed-corrected z-score -0.7778
- UUUUCGAUUUUUCAGCUUC against TET1 | seed-corrected z-score 0.8531
- UUAGGUGUGAAGAUAAUCA against OGDHL | seed-corrected z-score -0.1127
- AUUAGGUUGACUGUGCAGG against LOC653303 | seed-corrected z-score 0.4483
- UUUAUGGACUCAAUCGUCU against SMARCD3 | seed-corrected z-score 0.1778
- UCUCAGUACAGUUAUCGCG against NRTN | seed-corrected z-score 0.02763
- AUCGUGUCCAGGUACAGGG against ITPRIP | seed-corrected z-score 0.8127
- UCACGUGCAAGAUGAGAUC against GTPBP6 | seed-corrected z-score 0.3719

The last 4 entries again:

strand,gene,seed-corrected z-score
UUUAUGGACUCAAUCGUCU,SMARCD3,0.1778
UCUCAGUACAGUUAUCGCG,NRTN,0.02763
AUCGUGUCCAGGUACAGGG,ITPRIP,0.8127
UCACGUGCAAGAUGAGAUC,GTPBP6,0.3719

Source: PubChem BioAssay AID1159506 (NCATS, 2015).